Measurements reported in PubChem BioAssay AID1159584 (Peter MacCallum Cancer Centre, 2016).

Assay: 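Genes whose loss is lethal only together with E-cadherin loss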 (primary screen)
Cells: human MCF10A breast epithelial cells, parental and CDH1-null
Reagents: siRNA against human genes
Measurement: 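Cell viability by CellTiter-Glo ATP luminescence, each line scaled to the mean of mock wells across plates, then CDH1-null over parental ratio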
Direction: CDH1-null / parental viability ratio: higher = CDH1-null cells survive relatively better than parental
The whole screen tested about 18,000 reagents; below is a random part of them. Further read-outs or replicates are left out here. Not given: the amount of reagent, the time to read-out.

LAD1 gave CDH1-null / parental viability ratio 1.14.
Depletion of GMEB1 gave: CDH1-null / parental viability ratio 0.97.
Silencing of FICD resulted in: CDH1-null / parental viability ratio 1.03.
With knock-down of OXCT1 the results were CDH1-null / parental viability ratio 0.98.
For TEX9, the entry reads CDH1-null / parental viability ratio 1.17.
Depletion of TAP1 gave: CDH1-null / parental viability ratio 0.78.
Against FOXRED2, the entry reads CDH1-null / parental viability ratio 0.79.
DNAJC5 showed CDH1-null / parental viability ratio 1.27.
Against CNNM1, the values are CDH1-null / parental viability ratio 1.
After knock-down of DMXL1, the record shows CDH1-null / parental viability ratio 1.25.
For REEP4 the deposit lists CDH1-null / parental viability ratio 0.7.
After knock-down of EPHA2, the screen gave CDH1-null / parental viability ratio 1.01.
For MRGPRX3, the values are CDH1-null / parental viability ratio 0.86.
VN1R10P gave CDH1-null / parental viability ratio 0.83.
Against SELENOK, the entry reads CDH1-null / parental viability ratio 1.14.
After knock-down of MORF4, the record shows CDH1-null / parental viability ratio 1.37.
Against TTLL2, the values are CDH1-null / parental viability ratio 0.92.
DR1 scored CDH1-null / parental viability ratio 0.91.
Against SATB1, the values are CDH1-null / parental viability ratio 0.99.
RFX2 scored CDH1-null / parental viability ratio 0.82.
Depletion of KCNMB4 came out at: CDH1-null / parental viability ratio 1.15.
Against HEPACAM the deposit lists CDH1-null / parental viability ratio 0.88.
After knock-down of CHRND, the screen gave CDH1-null / parental viability ratio 1.29.
HTR6 scored CDH1-null / parental viability ratio 0.97.
For FBXO22, the values are CDH1-null / parental viability ratio 0.98.
Knock-down of ECSIT gave: CDH1-null / parental viability ratio 1.05.
ATP8B1 showed CDH1-null / parental viability ratio 1.03.
For GRIA2 the deposit lists CDH1-null / parental viability ratio 1.11.
After knock-down of B3GALNT1, the screen gave CDH1-null / parental viability ratio 0.92.

Ordered by “CDH1-null / parental viability ratio” (high to low): some entries from above.
KCNMB4 | CDH1-null / parental viability ratio: 1.15
SATB1 | CDH1-null / parental viability ratio: 0.99
HEPACAM | CDH1-null / parental viability ratio: 0.88
RFX2 | CDH1-null / parental viability ratio: 0.82

The listing continues:
Against ZFPM2, the entry reads CDH1-null / parental viability ratio 1.04.
ZNF48 scored CDH1-null / parental viability ratio 0.77.
With knock-down of TLL1, the screen gave CDH1-null / parental viability ratio 1.32.
With knock-down of ACYP1 the results were CDH1-null / parental viability ratio 0.96.
For TBL1XR1, the values are CDH1-null / parental viability ratio 1.2.
TCF23 gave CDH1-null / parental viability ratio 0.91.
SMAD7 showed CDH1-null / parental viability ratio 1.14.
Against CMA1, the values are CDH1-null / parental viability ratio 1.13.
DYRK3 showed CDH1-null / parental viability ratio 1.03.
Depletion of UPP2 resulted in: CDH1-null / parental viability ratio 1.
With knock-down of TM4SF20, the record shows CDH1-null / parental viability ratio 1.06.
With knock-down of AURKAIP1, the record shows CDH1-null / parental viability ratio 0.9.
After knock-down of MLLT6, the screen gave CDH1-null / parental viability ratio 0.98.
After knock-down of ITLN2, the screen gave CDH1-null / parental viability ratio 1.12.
Against ARPC5L the deposit lists CDH1-null / parental viability ratio 1.05.
Depletion of TRMT112 came out at: CDH1-null / parental viability ratio 1.32.
